Reference: US8114832
These are yes or no findings as the source states them, for the method shown. Some entries that bind do so weakly or less than the wild type.

The chains behind the UniProt entries cited, without tags or fusion partners. Residues count along the entry.
UniProt P02769, residues 25-607: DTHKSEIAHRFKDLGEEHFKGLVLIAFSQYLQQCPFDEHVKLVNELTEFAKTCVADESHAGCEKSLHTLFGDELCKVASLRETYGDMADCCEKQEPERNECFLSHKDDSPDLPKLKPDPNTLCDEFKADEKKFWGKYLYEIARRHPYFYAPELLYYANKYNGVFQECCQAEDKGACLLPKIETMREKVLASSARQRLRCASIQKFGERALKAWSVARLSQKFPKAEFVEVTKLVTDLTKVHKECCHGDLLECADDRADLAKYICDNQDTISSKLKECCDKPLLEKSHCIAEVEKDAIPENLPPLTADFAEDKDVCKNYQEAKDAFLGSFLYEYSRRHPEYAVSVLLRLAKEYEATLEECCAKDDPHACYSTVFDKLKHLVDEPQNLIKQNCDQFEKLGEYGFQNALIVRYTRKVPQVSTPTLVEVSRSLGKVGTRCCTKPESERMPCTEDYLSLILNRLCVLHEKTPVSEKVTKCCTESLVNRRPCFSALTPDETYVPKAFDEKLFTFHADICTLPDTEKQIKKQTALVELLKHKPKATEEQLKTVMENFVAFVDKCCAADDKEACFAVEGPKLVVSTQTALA
UniProt P00750, residues 36-562: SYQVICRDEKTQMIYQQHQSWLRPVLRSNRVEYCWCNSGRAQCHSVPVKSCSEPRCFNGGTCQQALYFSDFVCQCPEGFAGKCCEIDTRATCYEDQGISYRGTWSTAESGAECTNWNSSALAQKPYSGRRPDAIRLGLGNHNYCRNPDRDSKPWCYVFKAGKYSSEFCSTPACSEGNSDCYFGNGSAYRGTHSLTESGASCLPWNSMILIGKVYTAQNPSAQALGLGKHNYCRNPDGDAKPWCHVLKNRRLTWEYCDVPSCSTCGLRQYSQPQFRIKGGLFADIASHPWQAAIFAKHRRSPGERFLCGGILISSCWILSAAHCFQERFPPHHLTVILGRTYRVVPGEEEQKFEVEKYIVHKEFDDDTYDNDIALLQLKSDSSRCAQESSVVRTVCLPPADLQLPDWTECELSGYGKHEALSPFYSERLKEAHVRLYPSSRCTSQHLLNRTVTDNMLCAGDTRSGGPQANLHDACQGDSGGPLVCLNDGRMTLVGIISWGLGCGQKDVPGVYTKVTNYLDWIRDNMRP

Assays:
[1] = biological target: advanced glycation end-product (AGE)-modified bovine serum albumin (bovine) (UniProt P02769); experiment: SPR (Biacore), tPA immobilized
[2] = biological target: advanced glycation end-product (AGE)-modified bovine serum albumin (bovine) (UniProt P02769); experiment: SPR (Biacore), tPA immobilized, albumin-AGE injected at 3.9 µg/ml

binding [1]: binds
binding [2]: binds
Substance: tissue-type plasminogen activator (tPA) (from UniProt P00750 36-562) (enzyme)
